{"source": "PubChem BioAssay AID504808 – Drosophila RNAi Screening Center, 2011", "test": "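Genes whose loss lifts activity of an E2F-responsive reporter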 (primary screen)", "system": "Drosophila S2 cells", "reagent": "long dsRNA against Drosophila genes", "measured": "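Firefly luciferase driven by E2F sites, normalised to Renilla luciferase on the same minimal promoter, measured by plate reader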", "direction": "E2F firefly: higher = more E2F reporter activity; Renilla normaliser: higher = more normaliser reporter signal", "hit rule": "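Called active if the normalised E2F reporter went up by over 50%; the cutoff is arbitrary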", "note": "In all, the deposit lists about 21,000 reagents; this is an unselected part of those with a known target gene and a result. In the full data, 18 (0.084%) got an active call. 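Raw counts without plate normalisation, one of two replicates; the ratio scores behind the calls were not deposited.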 Entries without a mark were called inactive. Reagent sequences are not shown. Not given: the amount of reagent, the time to read-out."}
{"gene knocked down": "CG3631", "dsRNA": "DRSC15503", "E2F firefly, rep 1": 78247, "Renilla normaliser, rep 1": 3687}
{"gene knocked down": "CG16820", "dsRNA": "DRSC02522", "E2F firefly, rep 1": 74251, "Renilla normaliser, rep 1": 3727}
{"gene knocked down": "alphaTub67C (alpha-Tubulin at 67C)", "dsRNA": "DRSC11321", "E2F firefly, rep 1": 54618, "Renilla normaliser, rep 1": 3117}
{"gene knocked down": "CG11454", "dsRNA": "DRSC00310", "E2F firefly, rep 1": 86352, "Renilla normaliser, rep 1": 3920}
{"gene knocked down": "Lkb1 (Lkb1 kinase)", "dsRNA": "DRSC16481", "E2F firefly, rep 1": 72333, "Renilla normaliser, rep 1": 3170}
{"gene knocked down": "Kdsr (3-ketodihydrosphingosine reductase)", "dsRNA": "DRSC14245", "E2F firefly, rep 1": 59091, "Renilla normaliser, rep 1": 3488}
{"gene knocked down": "CG13775", "dsRNA": "DRSC02279", "E2F firefly, rep 1": 1.68e5, "Renilla normaliser, rep 1": 5407}
{"gene knocked down": "CG2100", "dsRNA": "DRSC12303", "E2F firefly, rep 1": 82586, "Renilla normaliser, rep 1": 3497}
{"gene knocked down": "CG9737", "dsRNA": "DRSC16550", "E2F firefly, rep 1": 1.41e5, "Renilla normaliser, rep 1": 6946}
{"gene knocked down": "Hmbs (Hydroxymethylbilane synthase)", "dsRNA": "DRSC08632", "E2F firefly, rep 1": 72422, "Renilla normaliser, rep 1": 3398}
{"gene knocked down": "CG2767", "dsRNA": "DRSC15451", "E2F firefly, rep 1": 72179, "Renilla normaliser, rep 1": 3560}
{"gene knocked down": "Prosbeta5R1 (Proteasome beta5 subunit-related 1)", "dsRNA": "DRSC04581", "E2F firefly, rep 1": 1.04e5, "Renilla normaliser, rep 1": 4501}
{"gene knocked down": "CG32187", "dsRNA": "DRSC10521", "E2F firefly, rep 1": 1.59e5, "Renilla normaliser, rep 1": 8212}
{"gene knocked down": "CG18508", "dsRNA": "DRSC18155", "E2F firefly, rep 1": 1.31e5, "Renilla normaliser, rep 1": 7363}
{"gene knocked down": "nyo (nyobe)", "dsRNA": "DRSC15029", "E2F firefly, rep 1": 44852, "Renilla normaliser, rep 1": 3509}
{"gene knocked down": "nyo (nyobe)", "dsRNA": "DRSC15030", "E2F firefly, rep 1": 44096, "Renilla normaliser, rep 1": 3979}
{"gene knocked down": "CG32054", "dsRNA": "DRSC10684", "E2F firefly, rep 1": 1.23e5, "Renilla normaliser, rep 1": 6461}
{"gene knocked down": "CG17715", "dsRNA": "DRSC11950", "E2F firefly, rep 1": 1.34e5, "Renilla normaliser, rep 1": 6733}
{"gene knocked down": "CG8840", "dsRNA": "DRSC00713", "E2F firefly, rep 1": 1.44e5, "Renilla normaliser, rep 1": 4549}
{"gene knocked down": "mEFTu1 (mitochondrial translation elongation factor Tu 1)", "dsRNA": "DRSC06959", "E2F firefly, rep 1": 2854, "Renilla normaliser, rep 1": 194}
{"gene knocked down": "CG9389", "dsRNA": "DRSC11857", "E2F firefly, rep 1": 82003, "Renilla normaliser, rep 1": 3533}
{"gene knocked down": "CG12398", "dsRNA": "DRSC19454", "E2F firefly, rep 1": 1.41e5, "Renilla normaliser, rep 1": 6221}
{"gene knocked down": "CG18336", "dsRNA": "DRSC06334", "E2F firefly, rep 1": 1.09e5, "Renilla normaliser, rep 1": 4511}
{"gene knocked down": "hb (hunchback)", "dsRNA": "DRSC16963", "E2F firefly, rep 1": 77397, "Renilla normaliser, rep 1": 4084}
{"gene knocked down": "TyrRS (Tyrosyl-tRNA synthetase)", "dsRNA": "DRSC10430", "E2F firefly, rep 1": 78158, "Renilla normaliser, rep 1": 3487}
{"gene knocked down": "Med (Medea)", "dsRNA": "DRSC16737", "E2F firefly, rep 1": 32154, "Renilla normaliser, rep 1": 2570}
{"gene knocked down": "tj (traffic jam)", "dsRNA": "DRSC02011", "E2F firefly, rep 1": 96756, "Renilla normaliser, rep 1": 3839}
{"gene knocked down": "CG10589", "dsRNA": "DRSC11629", "E2F firefly, rep 1": 1.41e5, "Renilla normaliser, rep 1": 6426}
{"gene knocked down": "mst (misato)", "dsRNA": "DRSC20582", "E2F firefly, rep 1": 1.44e5, "Renilla normaliser, rep 1": 6654}
{"gene knocked down": "CHKov2 (CHK domain ov2)", "dsRNA": "DRSC14262", "E2F firefly, rep 1": 1727, "Renilla normaliser, rep 1": 1112}
{"gene knocked down": "et (eye transformer)", "dsRNA": "DRSC19582", "E2F firefly, rep 1": 1.39e5, "Renilla normaliser, rep 1": 6112}
{"gene knocked down": "CG14377", "dsRNA": "DRSC14837", "E2F firefly, rep 1": 1.12e5, "Renilla normaliser, rep 1": 5903}
{"gene knocked down": "Coq2 (Coenzyme Q biosynthesis protein 2)", "dsRNA": "DRSC16516", "E2F firefly, rep 1": 1.32e5, "Renilla normaliser, rep 1": 5886}
{"gene knocked down": "CG13606", "dsRNA": "DRSC14609", "E2F firefly, rep 1": 1.11e5, "Renilla normaliser, rep 1": 6017}
{"gene knocked down": "CG9682", "dsRNA": "DRSC16536", "E2F firefly, rep 1": 1779, "Renilla normaliser, rep 1": 852}
{"gene knocked down": "CG5646", "dsRNA": "DRSC15853", "E2F firefly, rep 1": 1737, "Renilla normaliser, rep 1": 948}
